A negative result means that nothing was seen under these conditions.
Target: hCAP-G del479-553 (Homo sapiens) (UniProt Q9BPX3)
Assay: EMSA
Conditions: CAP-G alone, DNA 6.7 uM, up to 1:4, EMSA: DNA 6.7 uM (FAM probe 1.7 uM), protein 1:1-1:4 (2 equivalents in competition), overnight at 4 C, 1% agarose at 4 C, binding buffer, recombinant protein, residues 1-900, protein details: N-terminal His6, label: none (GelRed stain)

Protein sequences, listed by entry. Tags and fused reporters are not part of them. Lines headed by an entry give the natural chain unless they say otherwise; changes in a name come on top.
UniProt Q9BPX3: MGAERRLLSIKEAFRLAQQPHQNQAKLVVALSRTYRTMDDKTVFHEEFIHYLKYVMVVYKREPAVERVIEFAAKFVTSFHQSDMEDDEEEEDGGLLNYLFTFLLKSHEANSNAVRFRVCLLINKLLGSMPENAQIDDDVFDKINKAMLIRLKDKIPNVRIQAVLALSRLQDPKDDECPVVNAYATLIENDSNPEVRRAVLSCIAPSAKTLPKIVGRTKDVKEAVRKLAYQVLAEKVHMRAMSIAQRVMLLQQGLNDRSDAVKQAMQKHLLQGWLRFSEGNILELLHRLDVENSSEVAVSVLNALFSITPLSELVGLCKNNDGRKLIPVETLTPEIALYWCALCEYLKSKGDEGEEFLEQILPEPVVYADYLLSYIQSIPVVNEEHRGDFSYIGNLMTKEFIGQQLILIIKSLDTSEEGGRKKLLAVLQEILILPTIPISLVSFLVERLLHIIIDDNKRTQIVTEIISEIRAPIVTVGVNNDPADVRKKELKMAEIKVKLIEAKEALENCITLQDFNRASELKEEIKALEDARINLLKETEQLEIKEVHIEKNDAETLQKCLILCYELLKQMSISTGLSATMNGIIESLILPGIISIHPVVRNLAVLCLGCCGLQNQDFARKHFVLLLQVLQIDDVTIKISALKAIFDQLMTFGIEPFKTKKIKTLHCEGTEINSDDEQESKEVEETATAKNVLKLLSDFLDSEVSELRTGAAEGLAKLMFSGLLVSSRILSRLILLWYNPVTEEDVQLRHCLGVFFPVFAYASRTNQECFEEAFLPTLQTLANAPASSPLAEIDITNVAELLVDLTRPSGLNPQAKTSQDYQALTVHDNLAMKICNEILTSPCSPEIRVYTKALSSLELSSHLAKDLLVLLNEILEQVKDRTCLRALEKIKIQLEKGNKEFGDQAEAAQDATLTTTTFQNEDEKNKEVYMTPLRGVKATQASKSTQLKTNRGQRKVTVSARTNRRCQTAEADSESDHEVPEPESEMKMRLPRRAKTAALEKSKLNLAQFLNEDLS

Sequence	binding result	binding result (single-stranded DNA)
CCTATAGTGAGTCGTATTACAATTCACTCG (double strand) [30-bp dsDNA]	no binding	–
CCTATAGTGAGTCGTATTACAATTCACTCG [30-mer ssDNA]	–	no binding

Source: PMC6501013
